From article PMC8345219 (Cancers, 2021)
Results are given in words; binding and its absence hold for the method and conditions named. In cells and extracts the contact can be indirect. Some binding calls cover weakened binding; strength is not graded here. Where a sequence is shown, tags or fusion partners need not be part of it.

By UniProt entry, the sequences of proteins in these tests, tags left out.
UniProt P32120: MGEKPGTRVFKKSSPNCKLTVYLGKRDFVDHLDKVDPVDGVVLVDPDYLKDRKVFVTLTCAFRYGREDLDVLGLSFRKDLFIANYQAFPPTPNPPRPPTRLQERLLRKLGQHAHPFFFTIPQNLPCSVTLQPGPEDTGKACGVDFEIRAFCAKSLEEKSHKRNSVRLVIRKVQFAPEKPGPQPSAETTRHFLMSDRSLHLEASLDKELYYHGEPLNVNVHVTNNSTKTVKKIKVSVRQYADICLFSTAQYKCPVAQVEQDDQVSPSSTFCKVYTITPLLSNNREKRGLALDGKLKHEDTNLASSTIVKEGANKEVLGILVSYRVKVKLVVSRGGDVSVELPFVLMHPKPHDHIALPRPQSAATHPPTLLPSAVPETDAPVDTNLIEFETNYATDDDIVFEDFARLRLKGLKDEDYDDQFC

Target: T1, chemokine-like receptor 1 fused to eYFP (hCMKLR1-eYFP) (human) (UniProt Q99788)
T1 sequence: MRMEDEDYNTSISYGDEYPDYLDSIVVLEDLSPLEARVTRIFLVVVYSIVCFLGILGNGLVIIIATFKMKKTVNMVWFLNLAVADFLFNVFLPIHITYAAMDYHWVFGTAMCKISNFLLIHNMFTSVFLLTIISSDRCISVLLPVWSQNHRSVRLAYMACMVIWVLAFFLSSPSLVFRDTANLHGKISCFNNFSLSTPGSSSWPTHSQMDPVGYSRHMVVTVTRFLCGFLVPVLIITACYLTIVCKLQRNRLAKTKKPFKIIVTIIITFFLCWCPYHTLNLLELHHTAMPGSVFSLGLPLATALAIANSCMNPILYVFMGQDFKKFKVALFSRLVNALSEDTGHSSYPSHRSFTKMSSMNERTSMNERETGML
Assay: FRET or BRET; HEK293 cells transiently co-transfected with hCMKLR1-eYFP (+ chimeric G protein) and Rluc8-arrestin3; stimulated with peptide 1 or 12; BRET read 15 min after stimulation at 37 °C in BRET buffer (HBSS, 25 mM HEPES, pH 7.3), coelenterazine-h 4.2 µM

binding: binds
Substance: bovine arrestin-3 fused to Rluc8 (from UniProt P32120 1-420)
